{
  "source": "paper PMC4259335",
  "key": {"[1]": {"system": "BmeDI (Bacillus megaterium (DSM 319))", "test": "EMSA", "details": "pH 8.3, 5 mM Ca2+, 5hmC at position 9 of strand 2, EMSA: 40 mM Tris-acetate pH 8.3 or 30 mM Mes-histidine pH 6.3 (pH at 25°C), 5 mM Ca-acetate (or 1 mM EDTA), 0.1 mg/ml BSA, 10% glycerol, 15 min, DNA 1-100 nM, recombinant protein, label: 5'-33P"}, "[2]": {"system": "BmeDI (Bacillus megaterium (DSM 319))", "test": "KMnO4 footprinting", "details": "recombinant protein, label: 5'-33P"}, "[3]": {"details": "no difference from 39-H/H shown"}},
  "note": "The exact form of at least one protein or probe is not confirmed. For part of these data: The comparison behind a weaker result is the experiment's own reference, which may not be listed here. For part of these data: At least one verdict rests on a figure or table, not on a statement of the authors.",
  "data": [
    {"sequence": "CGACGATACTTACCGGATAAGGCGCAATTAGATTACTTC (double strand) [39-C/H]", "values": [
      {"measurement": "binding result", "setting": "[1]; [3]", "result": "binds"}
    ]},
    {"sequence": "CGACGATACTTACCGGATAAGGCGCAATTAGATTACTTC (double strand) [39-H/H]", "values": [
      {"measurement": "binding result", "setting": "[1]; 5hmC at position 9 of strand 1", "result": "binds"}
    ]},
    {"sequence": "CGACGATACTTACCGGATAAGGCGCAATTAGATTACTTC (double strand) [39-M/H]", "values": [
      {"measurement": "binding result", "setting": "[1]; no difference from 39-H/H shown, 5mC at position 9 of strand 1", "result": "binds"}
    ]},
    {"sequence": "CGACGATATTTACCGGATAAGGCGCAATTAAATTACTTC / GAAGTAATTTAATTGCGCCTTATCCGGTAAGTATCGTCG [39-T]", "values": [
      {"measurement": "binding result", "setting": "[2]; almost no T hyper-reactivity", "result": "binds more weakly"}
    ]},
    {"sequence": "CGACGATATTTACCGGATAAGGCGCAATTAGATTACTTC (double strand) [39-H]", "values": [
      {"measurement": "binding result", "setting": "[1]; [3]", "result": "binds"}
    ]},
    {"sequence": "CGACGATATTTACCGGATAAGGCGCAATTAGATTACTTC / GAAGTAATCTAATTGCGCCTTATCCGGTAAGTATCGTCG [39-T/H]", "values": [
      {"measurement": "binding result", "setting": "[2]; T hyper-reactivity less pronounced but detectable, 5hmC at position 9 of strand 2", "result": "binds"}
    ]}
  ]
}
